Measurements from patent US6432702.
These are yes or no findings as the source states them, for the method shown. Some results given as binding are weak or reduced against the parent protein; the word gives no strength.

Amino acid sequences for entries named in this document (tags omitted). Residues count along the entry.
UniProt P16092, residues 22-822: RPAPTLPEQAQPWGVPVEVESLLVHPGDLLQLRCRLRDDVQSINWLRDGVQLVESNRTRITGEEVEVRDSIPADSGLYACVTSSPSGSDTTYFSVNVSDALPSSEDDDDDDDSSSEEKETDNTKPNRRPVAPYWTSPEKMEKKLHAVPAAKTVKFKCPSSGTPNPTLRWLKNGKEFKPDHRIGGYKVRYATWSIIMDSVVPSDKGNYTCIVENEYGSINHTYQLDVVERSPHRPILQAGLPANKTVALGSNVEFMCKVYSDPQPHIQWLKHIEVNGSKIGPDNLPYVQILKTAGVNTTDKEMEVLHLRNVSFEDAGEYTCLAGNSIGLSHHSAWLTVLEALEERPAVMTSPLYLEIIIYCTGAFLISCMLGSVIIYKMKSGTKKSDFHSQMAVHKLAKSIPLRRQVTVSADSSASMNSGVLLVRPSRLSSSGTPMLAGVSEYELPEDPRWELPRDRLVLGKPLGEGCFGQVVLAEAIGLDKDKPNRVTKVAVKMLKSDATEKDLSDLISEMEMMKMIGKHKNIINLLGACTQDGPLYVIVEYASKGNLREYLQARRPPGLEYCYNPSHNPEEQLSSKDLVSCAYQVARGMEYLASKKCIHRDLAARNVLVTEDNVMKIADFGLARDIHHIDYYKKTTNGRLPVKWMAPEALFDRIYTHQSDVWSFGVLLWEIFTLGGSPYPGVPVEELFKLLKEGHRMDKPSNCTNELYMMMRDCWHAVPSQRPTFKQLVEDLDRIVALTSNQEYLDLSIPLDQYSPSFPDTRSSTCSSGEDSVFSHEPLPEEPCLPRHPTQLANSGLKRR
UniProt P21803, residues 22-821: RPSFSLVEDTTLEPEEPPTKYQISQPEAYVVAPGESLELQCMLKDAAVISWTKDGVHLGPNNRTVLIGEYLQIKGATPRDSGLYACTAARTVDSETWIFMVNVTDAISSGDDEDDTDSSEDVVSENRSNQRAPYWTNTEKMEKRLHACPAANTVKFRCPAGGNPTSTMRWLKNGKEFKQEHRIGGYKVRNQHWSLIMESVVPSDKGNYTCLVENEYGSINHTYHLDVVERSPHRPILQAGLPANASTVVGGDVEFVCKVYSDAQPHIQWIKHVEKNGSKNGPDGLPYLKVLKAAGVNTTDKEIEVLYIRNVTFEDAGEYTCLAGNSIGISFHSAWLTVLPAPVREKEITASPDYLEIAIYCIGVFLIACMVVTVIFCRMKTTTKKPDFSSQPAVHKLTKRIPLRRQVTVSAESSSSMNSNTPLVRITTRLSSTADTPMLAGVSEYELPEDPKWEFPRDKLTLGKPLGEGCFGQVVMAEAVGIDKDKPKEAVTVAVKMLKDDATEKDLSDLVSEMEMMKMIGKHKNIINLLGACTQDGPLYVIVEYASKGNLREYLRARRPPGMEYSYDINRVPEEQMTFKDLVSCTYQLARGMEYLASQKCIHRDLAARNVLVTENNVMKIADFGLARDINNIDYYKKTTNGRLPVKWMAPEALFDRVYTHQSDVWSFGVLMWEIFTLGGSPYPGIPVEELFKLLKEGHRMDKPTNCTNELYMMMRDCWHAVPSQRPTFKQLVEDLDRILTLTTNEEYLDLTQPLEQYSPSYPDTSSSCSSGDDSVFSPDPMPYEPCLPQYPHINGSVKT

What was measured:
FGF receptor-1 (flg) [1] = target: FGF receptor-1 (flg) (UniProt P16092); assay: cross-competition with iodinated K-FGF and K-FGF-140 on CHO 4-1 cells
FGF receptor-1 (flg) [2] = target: FGF receptor-1 (flg) (UniProt P16092); assay: competition with 125I-bFGF on CHO 4-1 cells expressing FGF receptor-1
FGF receptor-2 (bek) [3] = target: FGF receptor-2 (bek) (UniProt P21803); assay: cross-competition with iodinated K-FGF and K-FGF-140 on CHO 3-7.5 cells
FGF receptor-2 (bek) [4] = target: FGF receptor-2 (bek) (UniProt P21803); assay: competition with 125I-bFGF on CHO 3-7.5 cells expressing FGF receptor-2

Measured: binding

B1: K-FGF-140 (truncated K-FGF) (ligand)
chain: AAVQSGAGDYLLGIKRLRRLYCNVGIGFHLQALPDGRIGGAHADTRDSLLELSPVERGVVSIFGVASRFFVAMSSKGKLYGSPFFTDECTFKEILLPNNYNAYESYKYPGMFIALSKNGKTKKGNRVSPTMKVTHFLPRL
binds: FGF receptor-1 (flg) [1] | FGF receptor-1 (flg) [2] | FGF receptor-2 (bek) [3]

B2: K-FGF (full-length mature human growth factor) (ligand)
chain: APTAPNGTLEAELERRWESLVALSLARLPVAAQPKEAAVQSGAGDYLLGIKRLRRLYCNVGIGFHLQALPDGRIGGAHADTRDSLLELSPVERGVVSIFGVASRFFVAMSSKGKLYGSPFFTDECTFKEILLPNNYNAYESYKYPGMFIALSKNGKTKKGNRVSPTMKVTHFLPRL
binds: FGF receptor-1 (flg) [1] | FGF receptor-2 (bek) [4] | FGF receptor-2 (bek) [3]
